# ± gives the standard deviation. The list shows a part of the results, in another mix than the full data. Many of these values have a large error. This is one part of the list.
# Legend:
# [1] = test system: MILI (PIWIL2) piRISC loaded with L1MC piRNA (26 nt); test: pre-steady-state target cleavage rate (min^-1); higher = faster piRNA-guided slicing of the target; conditions: guide: L1MC piRNA 5'p-UAACUAAAUACUAUGCAAGCUGUAGG
# In short: (§1)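 Active affinity-purified piRISC (1 nM) loaded with one synthetic guide was mixed with a transcribed, DNA-blocked target RNA library (0.1 nM), with or without 500 nM GTSF1 partner protein, in HEPES–potassium acetate buffer at 33 °C for 0–8 or 0–960 min. Uncleaved targets were sequenced, normalised to depth and to weakly complementary targets, and pooled across three trials, with k3 capped at 0.0001 min^-1. The pre-steady-state cleavage rate was determined with a burst-and-steady-state fit.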
# [2] = test system: MIWI (PIWIL1) piRISC loaded with L1MC piRNA (30 nt); test: as above; conditions: guide: L1MC piRNA 5'p-UAACUAAAUACUAUGCAAGCUGUAGGUCCU
# In short: as §1
# [3] = test system: EfPiwi piRISC loaded with L1MC piRNA (26 nt); test: pre-steady-state target cleavage rate (min^-1); guide: L1MC piRNA 5'p-UAACUAAAUACUAUGCAAGCUGUAGG; MIWI and MILI are mouse PIWI proteins and EfPiwi is from a freshwater sponge; tags in brackets are library labels; higher = faster piRNA-guided slicing of the target
# In short: as §1
# [4] = auxiliary factor: none (no GTSF1)
# [5] = auxiliary factor: 500 nM mouse GTSF1
# [6] = auxiliary factor: 500 nM Ephydatia muelleri Gtsf1
# [7] = auxiliary factor: none (no Gtsf1)
sequence,measurement,setting,value
UCCUGGAUGAGCUUGCAUAGUAUAAACAAA,pre-steady-state target cleavage rate,[1]; [4],0.000567 ± 0.013
same,pre-steady-state target cleavage rate,[2]; [5],0.00322 ± 0.0044
same,pre-steady-state target cleavage rate,[2]; [4],0.000419 ± 0.0077
same,pre-steady-state target cleavage rate,[3]; [6],0.000721 ± 0.0048
UCCUGGAUGAGGUUGCAUAGUAUAUAGUUA,pre-steady-state target cleavage rate,[2]; [4],0.00279 ± 0.0052
same,pre-steady-state target cleavage rate,[3]; [6],0.00167 ± 0.0043
UCCUGGAUGUCGAUGCAGAGUAUUUAGUUA,pre-steady-state target cleavage rate,[1]; [4],0.00153 ± 0.0032
same,pre-steady-state target cleavage rate,[2]; [5],0.000216 ± 0.043
same,pre-steady-state target cleavage rate,[2]; [4],0.000855 ± 0.006
same,pre-steady-state target cleavage rate,[3]; [6],0.00129 ± 0.0053
UCCUGGAUGUCGAUGCAUAGUAAAAUCAAA [g9:g17:cont:t1A],pre-steady-state target cleavage rate,[2]; [4],0.000456 ± 0.012
same,pre-steady-state target cleavage rate,[3]; [6],0.000176 ± 0.02
UCCUGGAUGUCGAUACAUAGUAUUUAGUUA,pre-steady-state target cleavage rate,[1]; [4],0.00226 ± 0.003
same,pre-steady-state target cleavage rate,[2]; [5],0.00251 ± 0.0042
same,pre-steady-state target cleavage rate,[2]; [4],0.000339 ± 0.015
same,pre-steady-state target cleavage rate,[3]; [6],0.000337 ± 0.011
UCCUGCCUACAGCUUGCAUAGUAUUUAGUUA,pre-steady-state target cleavage rate,[1]; [5],0.342 ± 0.022
same,pre-steady-state target cleavage rate,[2]; [5],1.33 ± 0.091
same,pre-steady-state target cleavage rate,[2]; [4],0.0623 ± 0.014
same,pre-steady-state target cleavage rate,[3]; [6],0.0909 ± 0.021
UCCUGGAUGUCGUUGCAUAGUAUUUGAGUUA,pre-steady-state target cleavage rate,[2]; [4],0.00139 ± 0.0067
same,pre-steady-state target cleavage rate,[3]; [6],0.000496 ± 0.0084
UCCUGGAUGUCGUCGCAUAGUAUUUAGUUA,pre-steady-state target cleavage rate,[2]; [4],0.0015 ± 0.0044
same,pre-steady-state target cleavage rate,[3]; [6],0.00221 ± 0.0048
UCCUGGAUGUCCUUGCAUUCUAUUUAGUAA,pre-steady-state target cleavage rate,[2]; [4],0.000843 ± 0.0068
same,pre-steady-state target cleavage rate,[3]; [6],0.000755 ± 0.007
UCCUGGAUGAGCUUGGAAAGUAUUUAGUUA,pre-steady-state target cleavage rate,[2]; [4],0.00245 ± 0.0031
same,pre-steady-state target cleavage rate,[3]; [6],0.00122 ± 0.0047
UCCUCCUACUCGUUGCAUAGUAUUUUCAAA,pre-steady-state target cleavage rate,[2]; [4],0.000501 ± 0.0055
same,pre-steady-state target cleavage rate,[3]; [6],0.00113 ± 0.0066
UCCUGGAUGAGCUUCCUUAGUAUUUAGUUA,pre-steady-state target cleavage rate,[2]; [4],0.00134 ± 0.0043
same,pre-steady-state target cleavage rate,[3]; [6],0.00268 ± 0.003
UCCUGGAUGUCGAUGGUAAGUAUUUAGUUA,pre-steady-state target cleavage rate,[2]; [4],0.000126 ± 0.021
same,pre-steady-state target cleavage rate,[3]; [7],0.000246 ± 0.035
UCCUGGAUGUCGAAGCAUAGUAUUUACUUA,pre-steady-state target cleavage rate,[2]; [4],0.00066 ± 0.011
same,pre-steady-state target cleavage rate,[3]; [6],0.000238 ± 0.012
UCCUGGAUCUCGUUGCAUAGUAUUUAGAAA,pre-steady-state target cleavage rate,[2]; [4],0.00205 ± 0.0035
same,pre-steady-state target cleavage rate,[3]; [6],0.00227 ± 0.0036
UCCUGGAUGUCCUUGGAUAGUAUUAAGUUA,pre-steady-state target cleavage rate,[2]; [4],0.000465 ± 0.016
same,pre-steady-state target cleavage rate,[3]; [6],0.000443 ± 0.012
UCCUGGAUGUGCUUGCAUAGUAUAAAGUAA,pre-steady-state target cleavage rate,[1]; [4],0.000732 ± 0.0074
same,pre-steady-state target cleavage rate,[2]; [5],0.00523 ± 0.0043
same,pre-steady-state target cleavage rate,[2]; [4],0.00133 ± 0.0053
same,pre-steady-state target cleavage rate,[3]; [6],0.00248 ± 0.0044
UCCUGGAUGUCGAAGCAUAGUAUUAACUUA,pre-steady-state target cleavage rate,[2]; [4],0.000209 ± 0.029
same,pre-steady-state target cleavage rate,[3]; [6],0.000115 ± 0.031
UCCUGGAUGUCGAACGAUUCAAUUUAGUUA,pre-steady-state target cleavage rate,[2]; [4],0.00033 ± 0.012
same,pre-steady-state target cleavage rate,[3]; [6],0.000456 ± 0.014
UCCUGGAUGUCGAACGUACGUAUUUAGUUA,pre-steady-state target cleavage rate,[2]; [4],0.000111 ± 0.048
same,pre-steady-state target cleavage rate,[3]; [6],0.000195 ± 0.03
UCCUGGAACAGCUUCGAUAGUAUUUACAAA,pre-steady-state target cleavage rate,[2]; [4],0.000504 ± 0.016
same,pre-steady-state target cleavage rate,[3]; [6],0.00173 ± 0.0039
UCCUGGAUGUCCUUGGAUAGUUUUUAGUUA,pre-steady-state target cleavage rate,[2]; [4],0.000654 ± 0.013
same,pre-steady-state target cleavage rate,[3]; [6],0.00135 ± 0.0057
UCCUGGAUGUCGAUGCAUAGUUAUUAGUUA,pre-steady-state target cleavage rate,[2]; [4],0.00121 ± 0.0062
same,pre-steady-state target cleavage rate,[3]; [6],0.00078 ± 0.0073
UCCUGGAUGUCGAUGCAUAGUAUUUAGUCA,pre-steady-state target cleavage rate,[2]; [4],0.00139 ± 0.0049
same,pre-steady-state target cleavage rate,[3]; [6],0.00147 ± 0.0052
UCCUGGAUGUCCUUGCAUUGUAUUUAGUAA,pre-steady-state target cleavage rate,[1]; [4],0.0023 ± 0.0029
same,pre-steady-state target cleavage rate,[2]; [5],0.00258 ± 0.0061
same,pre-steady-state target cleavage rate,[2]; [4],0.00131 ± 0.0048
same,pre-steady-state target cleavage rate,[3]; [6],0.00131 ± 0.0053
UCCUGGAUGUCGAAGCAUAGUAUAUAGAUA,pre-steady-state target cleavage rate,[2]; [4],0.00043 ± 0.014
same,pre-steady-state target cleavage rate,[3]; [6],0.000611 ± 0.011
UCCUGCUACAGCUUGCAUAGCUAUUUAGUUA,pre-steady-state target cleavage rate,[2]; [4],0.00161 ± 0.0073
same,pre-steady-state target cleavage rate,[3]; [6],0.00152 ± 0.0025
UCCUGGAUGUCCUUCCAUAGAAUUUAGUUA,pre-steady-state target cleavage rate,[1]; [4],0.000384 ± 0.011
same,pre-steady-state target cleavage rate,[2]; [5],0.00314 ± 0.0049
same,pre-steady-state target cleavage rate,[2]; [4],0.000696 ± 0.0068
same,pre-steady-state target cleavage rate,[3]; [6],0.000868 ± 0.0078
UCCUGGAAGAGCUUCCAUAGUAUUUAGUUA,pre-steady-state target cleavage rate,[2]; [4],0.00131 ± 0.0046
same,pre-steady-state target cleavage rate,[3]; [6],0.00329 ± 0.0011
UCCUGGAUGUCGUAGCUUAGUAUUUAGUUA,pre-steady-state target cleavage rate,[1]; [4],0.00112 ± 0.0058
same,pre-steady-state target cleavage rate,[2]; [5],0.00127 ± 0.0089
same,pre-steady-state target cleavage rate,[2]; [4],0.000844 ± 0.0077
same,pre-steady-state target cleavage rate,[3]; [6],0.000285 ± 0.012
UCCUGGAUCACCUUGCAUAGUAUUUUCAAA,pre-steady-state target cleavage rate,[2]; [4],0.00142 ± 0.003
same,pre-steady-state target cleavage rate,[3]; [6],0.000209 ± 0.034
UCCUCCUACAGGUUCCAUAGUAUUUAGUUA,pre-steady-state target cleavage rate,[2]; [4],0.00144 ± 0.0043
same,pre-steady-state target cleavage rate,[3]; [6],0.0023 ± 0.0012
UCCUGGAUGUCGAUGCAUAGGUAUUUAGUUA,pre-steady-state target cleavage rate,[2]; [4],0.000991 ± 0.01
same,pre-steady-state target cleavage rate,[3]; [6],0.00161 ± 0.008
UCCUGGAUCAGCUUCGAUAGUAUUUAGUUA,pre-steady-state target cleavage rate,[2]; [4],0.00246 ± 0.0032
same,pre-steady-state target cleavage rate,[3]; [6],0.00503 ± 0.0041
UCCUGGAUCAGCUUGCAUAGUAUUUGUUA,pre-steady-state target cleavage rate,[2]; [4],0.00191 ± 0.0031
same,pre-steady-state target cleavage rate,[3]; [6],0.00326 ± 0.0029
UCCUGGAUGUCCUUGCAUAGUAUUCUAGUUA,pre-steady-state target cleavage rate,[2]; [4],0.00312 ± 0.0037
same,pre-steady-state target cleavage rate,[3]; [6],0.00157 ± 0.0034
UCCUGGAUGUCCUUGCAUAGUAUUUUGAUA,pre-steady-state target cleavage rate,[2]; [4],0.00151 ± 0.0044
same,pre-steady-state target cleavage rate,[3]; [6],0.00168 ± 0.0035
UCCUGGAUGUCGAUGUCAUAGUAUUUAGUUA,pre-steady-state target cleavage rate,[2]; [4],0.00104 ± 0.0068
same,pre-steady-state target cleavage rate,[3]; [7],0.00044 ± 0.018
UCCUGGAUGUCCUUGCAUAGUAUAAAGUUA,pre-steady-state target cleavage rate,[2]; [4],0.00252 ± 0.0034
same,pre-steady-state target cleavage rate,[3]; [6],0.00138 ± 0.007
UCCUGGAUGUCGAAGCAUGUAUUUAGUUA,pre-steady-state target cleavage rate,[2]; [4],0.000883 ± 0.0088
same,pre-steady-state target cleavage rate,[3]; [6],0.000193 ± 0.017
UCCUGGAUCAGCUUGCAUAGUAUUUAUUA,pre-steady-state target cleavage rate,[2]; [4],0.00209 ± 0.0035
same,pre-steady-state target cleavage rate,[3]; [6],0.0033 ± 0.0024
UCCUGGAACAGCUUGGUAAGUAUUUAGUUA,pre-steady-state target cleavage rate,[2]; [4],0.00172 ± 0.0048
same,pre-steady-state target cleavage rate,[3]; [6],0.00181 ± 0.0057
UCCUGGAUGUCGAUGCAUAGUAUUUAGAUA,pre-steady-state target cleavage rate,[2]; [4],0.00105 ± 0.0049
same,pre-steady-state target cleavage rate,[3]; [6],0.00301 ± 0.0033
UCCUGGAUGUCGAUGCAUGGUAUUUAGUUA,pre-steady-state target cleavage rate,[2]; [4],0.00134 ± 0.0064
same,pre-steady-state target cleavage rate,[3]; [6],0.00175 ± 0.0054
UCCUGGUACAGCAAGCAUAGUAUUUACAAA,pre-steady-state target cleavage rate,[2]; [4],0.00119 ± 0.0072
same,pre-steady-state target cleavage rate,[3]; [6],0.000402 ± 0.013
UCCUGGAUGUCGUUGCAUAGUAUUUAGUCA,pre-steady-state target cleavage rate,[2]; [4],0.00273 ± 0.0036
same,pre-steady-state target cleavage rate,[3]; [6],0.00071 ± 0.0056
UCCUGGAUGUCGAAGCAUGAGUAUUUAGUUA,pre-steady-state target cleavage rate,[2]; [4],0.000491 ± 0.012
same,pre-steady-state target cleavage rate,[3]; [6],0.00018 ± 0.029
UCCUGGAUGUCGAACGUAUGUAUUUAGGUUA,pre-steady-state target cleavage rate,[2]; [5],0.000178 ± 0.039
same,pre-steady-state target cleavage rate,[3]; [6],0.0001 ± 0.041
UCCUCCUACAGCUACCAUAGUAUUUAGUUA,pre-steady-state target cleavage rate,[2]; [4],0.00227 ± 0.0031
same,pre-steady-state target cleavage rate,[3]; [7],0.00061 ± 0.0099
UCCUGGAUCAGCAACCAUAGUAUUUUCAAA,pre-steady-state target cleavage rate,[2]; [4],0.00052 ± 0.0093
same,pre-steady-state target cleavage rate,[3]; [7],< 0.0001
UCCUGGAUGUCGAAGCAUAGCAUUUAGUUA,pre-steady-state target cleavage rate,[2]; [4],0.000748 ± 0.0083
same,pre-steady-state target cleavage rate,[3]; [6],0.000335 ± 0.01
UCCUGGAUGAGCUUCCAAAGUAUUUAGUUA,pre-steady-state target cleavage rate,[2]; [4],0.00148 ± 0.0039
same,pre-steady-state target cleavage rate,[3]; [6],0.00193 ± 0.0022

# An excerpt of these results, with tabs.
sequence	measurement	setting	value
UCCUGGAUGUCCUUGCAUUGUAUUUAGUAA	pre-steady-state target cleavage rate	[1]; [4]	0.0023 ± 0.0029
same	pre-steady-state target cleavage rate	[2]; [5]	0.00258 ± 0.0061
same	pre-steady-state target cleavage rate	[2]; [4]	0.00131 ± 0.0048
same	pre-steady-state target cleavage rate	[3]; [6]	0.00131 ± 0.0053
UCCUGGAUGUCGAAGCAUAGUAUAUAGAUA	pre-steady-state target cleavage rate	[2]; [4]	0.00043 ± 0.014
same	pre-steady-state target cleavage rate	[3]; [6]	0.000611 ± 0.011
UCCUGCUACAGCUUGCAUAGCUAUUUAGUUA	pre-steady-state target cleavage rate	[2]; [4]	0.00161 ± 0.0073
same	pre-steady-state target cleavage rate	[3]; [6]	0.00152 ± 0.0025
UCCUGGAUGUCCUUCCAUAGAAUUUAGUUA	pre-steady-state target cleavage rate	[1]; [4]	0.000384 ± 0.011
same	pre-steady-state target cleavage rate	[2]; [5]	0.00314 ± 0.0049
same	pre-steady-state target cleavage rate	[2]; [4]	0.000696 ± 0.0068
same	pre-steady-state target cleavage rate	[3]; [6]	0.000868 ± 0.0078
UCCUGGAAGAGCUUCCAUAGUAUUUAGUUA	pre-steady-state target cleavage rate	[2]; [4]	0.00131 ± 0.0046
same	pre-steady-state target cleavage rate	[3]; [6]	0.00329 ± 0.0011
UCCUGGAUGUCGUAGCUUAGUAUUUAGUUA	pre-steady-state target cleavage rate	[1]; [4]	0.00112 ± 0.0058
same	pre-steady-state target cleavage rate	[2]; [5]	0.00127 ± 0.0089
same	pre-steady-state target cleavage rate	[2]; [4]	0.000844 ± 0.0077
